The record followed here is patent US20130096282A1.

These are yes or no findings as the source states them, for the method shown. For some assays here: Binding can be weak; no strength is given.

In assay [1] the target is flagellin type A of P. aeruginosa strain ATCC 27853 (Pseudomonas aeruginosa). Nature of the assay: ELISA on formaldehyde-fixed whole bacteria. For orientation: An ELISA detects its analyte on a solid surface through an enzyme-linked reagent.
Assay [2] addresses flagellin type B of clinical P. aeruginosa isolate Ka01 (Pseudomonas aeruginosa). In words: ELISA on formaldehyde-fixed whole bacteria, mAb at 0.5 µg/ml.
The target in assay [3] is flagellin type B of clinical P. aeruginosa isolate Ka03 (Pseudomonas aeruginosa). The assay is described as above.
Assay [4] deals with flagellin type B of clinical P. aeruginosa isolate Ka04 (Pseudomonas aeruginosa). The assay is described as above.
The target of assay [5] is flagellin type B of commercial P. aeruginosa strain 25619 (Pseudomonas aeruginosa). The assay is described as above.
The target of assay [6] is flagellin type B of commercial P. aeruginosa strain NCTC 10662 (Pseudomonas aeruginosa). Described as above.
Assay [7] concerns the target flagellin type B of multi-drug resistant clinical P. aeruginosa isolate Ka02 (Pseudomonas aeruginosa). The description is as above.
The target in assay [8] is flagellin type B of clinical P. aeruginosa isolate Ka01 (Pseudomonas aeruginosa). Nature of the assay: ELISA on formaldehyde-fixed whole bacteria, single concentration.
In assay [9] the target is flagellin type B of clinical P. aeruginosa isolate Ka03 (Pseudomonas aeruginosa). The description is as above.
The target of assay [10] is flagellin type B of clinical P. aeruginosa isolate Ka04 (Pseudomonas aeruginosa). Described as above.
Assay [11] addresses flagellin type B of commercial P. aeruginosa strain 25619 (Pseudomonas aeruginosa). The description is as above.
Assay [12] addresses flagellin type B of commercial P. aeruginosa strain NCTC 10662 (Pseudomonas aeruginosa). Described as above.
Assay [13] addresses flagellin type B of multi-drug resistant clinical P. aeruginosa isolate Ka02 (Pseudomonas aeruginosa). Described as above.
Assay [14] concerns the target flagellin type B of clinical P. aeruginosa isolate Ka01 (Pseudomonas aeruginosa). In words: ELISA on whole fixed bacteria (FIG. 9).
Assay [15] concerns the target flagellin type B of clinical P. aeruginosa isolate Ka03 (Pseudomonas aeruginosa). Nature of the assay: ELISA on whole fixed bacteria (FIG. 9).
Assay [16] has as its target flagellin type B of clinical P. aeruginosa isolate Ka04 (Pseudomonas aeruginosa). In words: ELISA on whole fixed bacteria (FIG. 9).
Assay [17] concerns the target flagellin type B of commercial P. aeruginosa strain 25619 (Pseudomonas aeruginosa). In words: ELISA on whole fixed bacteria (FIG. 9).
Assay [18] addresses flagellin type B of commercial P. aeruginosa strain NCTC 10662 (Pseudomonas aeruginosa). In words: ELISA on whole fixed bacteria (FIG. 9).
Assay [19] deals with flagellin type B of multi-drug resistant clinical P. aeruginosa isolate Ka02 (Pseudomonas aeruginosa). In words: ELISA on whole fixed bacteria (FIG. 9).
The target of assay [20] is flagellin type A of P. aeruginosa strain ATCC 27853 (Pseudomonas aeruginosa). In words: ELISA on whole immobilized bacteria, LST-007 supernatant.
The target is the same in assay [21]. Nature of the assay: ELISA on formaldehyde-fixed whole bacteria, hybridoma supernatant.
In assay [22] the target is flagellin type B of clinical P. aeruginosa isolate Ka01 (Pseudomonas aeruginosa). The description is as above.
The target in assay [23] is flagellin type B of clinical P. aeruginosa isolate Ka03 (Pseudomonas aeruginosa). The assay is described as above.
The target in assay [24] is flagellin type B of clinical P. aeruginosa isolate Ka04 (Pseudomonas aeruginosa). Described as above.
Assay [25] has as its target flagellin type B of commercial P. aeruginosa strain 25619 (Pseudomonas aeruginosa). Described as above.
The target in assay [26] is flagellin type B of commercial P. aeruginosa strain NCTC 10662 (Pseudomonas aeruginosa). The assay is described as above.
In assay [27] the target is flagellin type B of multi-drug resistant clinical P. aeruginosa isolate Ka02 (Pseudomonas aeruginosa). Described as above.
The target of assay [28] is flagellin type A of multi-drug resistant P. aeruginosa strain PA1 (Pseudomonas aeruginosa). In words: immunoblot of bacterial lysates. (A western blot detects proteins with antibodies after separation by electrophoresis.)
Assay [29] concerns the target flagellin type A of multi-drug resistant P. aeruginosa strain PA141 (Pseudomonas aeruginosa). In words: immunoblot of bacterial lysates.
Assay [30] deals with flagellin type A of multi-drug resistant P. aeruginosa strain PA409 (Pseudomonas aeruginosa). Nature of the assay: immunoblot of bacterial lysates.
Assay [31] has as its target flagellin type A of multi-drug resistant P. aeruginosa strain PA49 (Pseudomonas aeruginosa). Nature of the assay: immunoblot of bacterial lysates.
The target of assay [32] is flagellin type B of multi-drug resistant P. aeruginosa strain PA21 (Pseudomonas aeruginosa). In words: western blot of P. aeruginosa lysates.
Assay [33] concerns the target flagellin type A of multi-drug resistant P. aeruginosa strain PA1 (Pseudomonas aeruginosa). Nature of the assay: western blot of bacterial lysates, mAb at 10 µg/ml.
Assay [34] addresses flagellin type A of multi-drug resistant P. aeruginosa strain PA141 (Pseudomonas aeruginosa). Nature of the assay: western blot of bacterial lysates, mAb at 10 µg/ml.
For assay [35], the target named is flagellin type A of multi-drug resistant P. aeruginosa strain PA409 (Pseudomonas aeruginosa). In words: western blot of bacterial lysates, mAb at 10 µg/ml.
Assay [36] has as its target flagellin type A of multi-drug resistant P. aeruginosa strain PA49 (Pseudomonas aeruginosa). Nature of the assay: western blot of bacterial lysates, mAb at 10 µg/ml.
In assay [37] the target is flagellin type B of multi-drug resistant P. aeruginosa strain PA21 (Pseudomonas aeruginosa). In words: immunoblot of P. aeruginosa lysates probed with LST-001, anti-mouse Fc peroxidase detection.
Assay [38] deals with flagellin type A of multi-drug resistant P. aeruginosa strain PA141 (Pseudomonas aeruginosa). In words: immunoblot of P. aeruginosa lysates probed with LST-001 at 10 µg/ml, anti-mouse Fc peroxidase detection.
For assay [39], the target named is flagellin type A of multi-drug resistant P. aeruginosa strain PA49 (Pseudomonas aeruginosa). The assay is described as above.
Assay [40] deals with flagellin type A of P. aeruginosa strain ATCC 27853 (Pseudomonas aeruginosa). In words: ELISA on formaldehyde-fixed whole bacteria, mAb at 1 nM.
The target in assay [41] is flagellin type B of multi-drug resistant clinical P. aeruginosa isolate Ka02 (Pseudomonas aeruginosa). Described as above.
For assay [42] the target is unchanged. Nature of the assay: ELISA on wells holding an equal mixture of formaldehyde-fixed PA27853 (type A) and Ka02 (type B) bacteria, mAb at 1 nM; the target within the mixture follows the filing's text, not the sheet.
In assay [43] the target is flagellin type B of multi-drug resistant P. aeruginosa strain PA21 (Pseudomonas aeruginosa). In words: immunoblot of bacterial lysates (earlier result referred to in the legend).

B1: fully human recombinant mAb LST-008 (antibody, V domains shown)
VH: QVRLVQSGTEVKKPGASVRVSCKASGYTFSNYYMYWVRQAPGQGLEWMAMINPSGGSTRYAQKFQGRVTMTRDTSTSTVYMELSSLRSEDTAVYYCARADSGSYFGYWGQGTLVTVSS
VL: DIQLTQSPSFLSASVGDRVPITCRASQGISTHLAWYQQKPGKAPKLLIYAASTLQSGVPSRFSGSGSGTEFTLTISSLQPEDSATYYCQQLKSYPLTFGGGTKVEIKR
As to B1, the binding entry in assay [1] is on record as “no binding (tested: 0.5 µg/ml)”; in assay [2], “binds”; in [3] it was “binds”; in assay [4], “binds”; in assay [5] it was “binds”; in assay [6] it was “binds”. The binding result in assay [7], in [8], in [9], in assay [10], in [11] and in assay [12] was “binds” each time. Besides, in assay [13], the binding result was “binds”.

B2: human monoclonal IgM antibody LST-007 (antibody, V domains shown)
VH: B1 VH
VL: B1 VL
On to B2, for which the binding entry in assay [14], in assay [15], in [16], in assay [17], in [18] and in assay [19] was “binds” in each case. Besides, the binding result in [20] is “no binding”; in assay [21], “no binding (tested: supernatant, concentration not given)”; in assay [22], “binds”; in assay [23], “binds”; in [24], “binds”; in assay [25], “binds”. Moreover, the binding result in [26] and in assay [27] was “binds” throughout.

B3: mouse monoclonal antibody LST-001 (antibody, V domains shown)
VH: DVQLQESGPGLVKPSQSLSLPCSVTGYSITSGYYWNWIRQFPGNKLEWMGYIRYDGNNNYNPSLKNRISITHDTSKNQFFLKLNYVTTEDTATYYCARGLQFYFDSWGQGTTLTVSS
VL: DIVMSQSPSSLAVSGGEKVTMSCKSSQSLLNGSYQKHTLAWYQQKPGQSPKLLIYWASTRESGVPDRFTGSGSGTDFTLTISSVKAEDLAVYYCQQYYSYPWTFGGGTKLEIKR
For the molecule B3, the binding result in assay [28] is reported as “binds”; in assay [29], “binds”; in [30], “binds”; in [31] it was “binds”; in [32] it was “no binding (tested: 10 µg/ml)”; in [33], “binds”. In addition, the binding result in assay [34] is given as “binds”; in assay [35], “binds”; in [36], “binds”; in [37], “no binding (tested: 10 µg/ml)”; in assay [38] it was “binds”; in [39], “binds”.

B4: chimeric mAb LST-004 (antibody, V domains shown)
VH: EVMLVESGGGLVKPGGSLKLSCAASGFTFSTFTMSWVRQTPEKRLECVATINGGGGNTYYPDSVKGRFTISRDNAKNNLYLQMSSLRSEDTAFYFCSRLYGIYAMDYWGQGTSVTVSS
VL: DIVMTQSHIFMSTSVGDRVSITCKASQDVGSAVAWYQQKPGQSPKVLIYWTSTRHTGVPDRFAGSGSGTEFTLTISNVQSEDLADYFCQQYSSYPLTFGAGTKLELKR
Take B4: the binding entry was “no binding (tested: 1 nM)” in [1], “no binding (tested: 1 nM)” in assay [40], “binds” in assay [41] and “binds” in assay [42].

B5: mouse monoclonal antibody LST-002 (antibody, V domains shown)
VH: B4 VH
VL: B4 VL
Take B5: the binding result in [43] is “binds”.
